From the supplement of paper PMC6411743
± gives the standard deviation of the averaged measurements. The list shows a part of the results.

Columns and labels:
Assay in all cases: NP40-soluble protein abundance relative to vehicle (solubility fold change) (ratio); higher = more soluble protein in presence of GTP
ANKMY2 = molecular target: T1, ANKMY2 (UniProt Q8IV38)
T1 sequence (whole entry): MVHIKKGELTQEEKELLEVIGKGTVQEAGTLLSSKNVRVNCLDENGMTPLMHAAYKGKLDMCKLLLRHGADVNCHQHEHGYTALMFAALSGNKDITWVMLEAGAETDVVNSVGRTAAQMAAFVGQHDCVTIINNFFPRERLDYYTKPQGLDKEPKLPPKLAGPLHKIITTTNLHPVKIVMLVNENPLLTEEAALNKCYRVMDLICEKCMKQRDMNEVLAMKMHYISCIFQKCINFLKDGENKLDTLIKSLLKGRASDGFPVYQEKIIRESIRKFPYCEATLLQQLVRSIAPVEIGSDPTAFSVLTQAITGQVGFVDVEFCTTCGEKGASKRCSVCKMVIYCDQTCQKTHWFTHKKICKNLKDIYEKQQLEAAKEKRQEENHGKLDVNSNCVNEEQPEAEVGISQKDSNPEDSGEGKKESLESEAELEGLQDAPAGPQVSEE
Procedure, shortened: (§1)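 Each value is a fold change relative to the detergent-processed vehicle, calculated per replicate from vsn-normalised intensities. Jurkat crude lysate received eight concentrations (0.1 to 10 mM) for 10 min at room temperature and 3 min at 37 °C, then was solubilised in 0.8% NP40 with benzonase (60 min, 4 °C). The ultracentrifuged supernatant was TMT-labelled and run by LC-MS/MS in three independent experiments.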

C2orf69 = molecular target: T2, C2orf69 (UniProt Q8N8R5)
T2 sequence (whole entry): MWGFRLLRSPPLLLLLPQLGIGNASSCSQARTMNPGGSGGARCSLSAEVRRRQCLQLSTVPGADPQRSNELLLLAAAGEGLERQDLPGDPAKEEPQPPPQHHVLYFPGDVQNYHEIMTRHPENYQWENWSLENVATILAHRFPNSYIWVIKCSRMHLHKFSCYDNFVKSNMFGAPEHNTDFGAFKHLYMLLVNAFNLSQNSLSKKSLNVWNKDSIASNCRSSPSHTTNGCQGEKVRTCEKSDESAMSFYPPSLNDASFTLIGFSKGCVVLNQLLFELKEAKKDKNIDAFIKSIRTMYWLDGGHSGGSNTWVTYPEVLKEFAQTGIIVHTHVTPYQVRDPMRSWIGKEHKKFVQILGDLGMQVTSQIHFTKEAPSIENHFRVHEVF
Procedure, shortened: as §1

CBR4 = molecular target: T3, CBR4 (UniProt Q8N4T8)
T3 sequence (whole entry): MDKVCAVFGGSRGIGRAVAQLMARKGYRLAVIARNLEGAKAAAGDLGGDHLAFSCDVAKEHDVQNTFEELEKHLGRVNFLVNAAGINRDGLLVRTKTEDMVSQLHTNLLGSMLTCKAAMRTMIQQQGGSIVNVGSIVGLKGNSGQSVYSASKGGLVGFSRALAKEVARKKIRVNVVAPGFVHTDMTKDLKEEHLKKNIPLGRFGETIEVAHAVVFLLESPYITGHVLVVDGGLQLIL
Procedure, shortened: as §1

COG1 = molecular target: T4, COG1 (UniProt Q8WTW3)
T4 sequence (whole entry): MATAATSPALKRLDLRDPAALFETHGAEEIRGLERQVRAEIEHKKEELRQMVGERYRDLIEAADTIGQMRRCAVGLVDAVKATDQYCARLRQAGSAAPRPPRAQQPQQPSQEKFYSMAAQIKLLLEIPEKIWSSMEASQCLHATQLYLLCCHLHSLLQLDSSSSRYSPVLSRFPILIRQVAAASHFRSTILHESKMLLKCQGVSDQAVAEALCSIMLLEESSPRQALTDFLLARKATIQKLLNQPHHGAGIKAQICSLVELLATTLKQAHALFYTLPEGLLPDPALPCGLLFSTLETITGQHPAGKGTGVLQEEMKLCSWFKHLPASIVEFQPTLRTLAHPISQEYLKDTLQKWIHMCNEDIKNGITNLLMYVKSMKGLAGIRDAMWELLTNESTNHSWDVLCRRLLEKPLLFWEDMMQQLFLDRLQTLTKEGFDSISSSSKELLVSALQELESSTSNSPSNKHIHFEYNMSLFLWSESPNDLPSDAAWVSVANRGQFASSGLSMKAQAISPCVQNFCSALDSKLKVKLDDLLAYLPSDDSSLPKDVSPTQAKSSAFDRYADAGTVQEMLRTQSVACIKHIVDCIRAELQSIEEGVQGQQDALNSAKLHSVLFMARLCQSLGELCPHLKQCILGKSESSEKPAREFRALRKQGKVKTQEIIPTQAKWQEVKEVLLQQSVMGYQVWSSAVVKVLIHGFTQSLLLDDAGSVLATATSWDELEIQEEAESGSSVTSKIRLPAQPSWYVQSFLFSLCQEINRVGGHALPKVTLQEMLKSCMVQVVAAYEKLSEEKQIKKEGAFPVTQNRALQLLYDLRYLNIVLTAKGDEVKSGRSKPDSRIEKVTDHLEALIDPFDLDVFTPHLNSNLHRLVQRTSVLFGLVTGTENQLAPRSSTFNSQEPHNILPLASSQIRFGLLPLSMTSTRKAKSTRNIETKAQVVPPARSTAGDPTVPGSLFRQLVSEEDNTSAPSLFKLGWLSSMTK
Procedure, shortened: as §1

NHLRC2 = molecular target: T5, NHLRC2 (UniProt Q8NBF2)
T5 sequence (whole entry): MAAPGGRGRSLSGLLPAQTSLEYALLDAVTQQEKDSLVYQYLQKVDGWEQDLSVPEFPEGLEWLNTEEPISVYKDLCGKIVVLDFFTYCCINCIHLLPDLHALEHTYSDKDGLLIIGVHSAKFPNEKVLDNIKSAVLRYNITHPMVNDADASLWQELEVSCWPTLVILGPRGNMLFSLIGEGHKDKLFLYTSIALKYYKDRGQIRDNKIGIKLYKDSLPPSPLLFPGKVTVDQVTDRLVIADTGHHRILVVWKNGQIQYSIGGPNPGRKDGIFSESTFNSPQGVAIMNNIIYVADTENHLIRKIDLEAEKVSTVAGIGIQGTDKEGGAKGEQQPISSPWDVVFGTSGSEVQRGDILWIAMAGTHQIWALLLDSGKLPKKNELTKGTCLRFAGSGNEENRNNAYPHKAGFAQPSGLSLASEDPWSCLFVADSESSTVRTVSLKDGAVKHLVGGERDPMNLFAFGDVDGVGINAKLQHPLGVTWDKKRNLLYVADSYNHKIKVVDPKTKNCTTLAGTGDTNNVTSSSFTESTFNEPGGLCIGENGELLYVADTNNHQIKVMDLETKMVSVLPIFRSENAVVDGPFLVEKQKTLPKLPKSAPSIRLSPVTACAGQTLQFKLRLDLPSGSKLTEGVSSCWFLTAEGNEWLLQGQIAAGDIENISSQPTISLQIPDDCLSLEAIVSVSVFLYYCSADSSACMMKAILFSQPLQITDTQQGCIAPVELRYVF
Procedure, shortened: as §1

PLD3 = molecular target: T6, PLD3 (UniProt Q8IV08)
T6 sequence (whole entry): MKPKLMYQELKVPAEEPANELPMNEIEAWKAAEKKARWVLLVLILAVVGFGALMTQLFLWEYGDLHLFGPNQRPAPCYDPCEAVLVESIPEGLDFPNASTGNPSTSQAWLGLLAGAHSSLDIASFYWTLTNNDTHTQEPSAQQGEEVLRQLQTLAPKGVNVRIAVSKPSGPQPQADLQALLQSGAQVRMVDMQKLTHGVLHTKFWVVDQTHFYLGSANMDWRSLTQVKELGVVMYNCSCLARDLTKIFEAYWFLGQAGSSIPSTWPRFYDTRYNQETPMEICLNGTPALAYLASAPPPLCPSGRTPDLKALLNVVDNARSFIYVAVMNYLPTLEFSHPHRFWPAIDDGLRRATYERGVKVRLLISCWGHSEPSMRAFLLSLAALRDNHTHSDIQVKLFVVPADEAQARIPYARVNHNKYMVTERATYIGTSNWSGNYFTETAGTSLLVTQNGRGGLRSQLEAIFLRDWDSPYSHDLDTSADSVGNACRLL
Procedure, shortened: as §1

In the case of `Nc1nc2c(ncn2[C@@H]2O[C@H](COP(=O)(O)OP(=O)(O)OP(=O)(O)O)[C@@H](O)[C@H]2O)c(=O)[nH]1` [guanosine triphosphate], the NP40-soluble protein abundance (ANKMY2; concentration: 0.1mM) is reported as 0.967 ± 0.012, the NP40-soluble protein abundance (ANKMY2; concentration: 0.5mM) is reported as 0.984 ± 0.037 and the NP40-soluble protein abundance (ANKMY2; concentration: 1mM) is reported as 0.891 ± 0.03. For the same compound, the NP40-soluble protein abundance (ANKMY2; concentration: 2mM) was 0.891 ± 0.013, the NP40-soluble protein abundance (ANKMY2; concentration: 4mM) was 0.87 ± 0.021 and the NP40-soluble protein abundance (ANKMY2; concentration: 6mM) was 0.904 ± 0.016. It also gave an NP40-soluble protein abundance (ANKMY2; concentration: 8mM) of 0.838 ± 0.027, an NP40-soluble protein abundance (ANKMY2; concentration: 10mM) of 0.887 ± 0.027 and an NP40-soluble protein abundance (C2orf69; concentration: 0.1mM) of 1.104 ± 0.0071. It also gave an NP40-soluble protein abundance (C2orf69; concentration: 0.5mM) of 1.09 ± 0.077, an NP40-soluble protein abundance (C2orf69; concentration: 1mM) of 0.917 ± 0.045 and an NP40-soluble protein abundance (C2orf69; concentration: 2mM) of 1.01 ± 0.043. For the same compound, the NP40-soluble protein abundance (C2orf69; concentration: 4mM) was 0.988 ± 0.064, the NP40-soluble protein abundance (C2orf69; concentration: 6mM) was 0.897 ± 0.037 and the NP40-soluble protein abundance (C2orf69; concentration: 8mM) was 0.892 ± 0.13. For the same compound, the NP40-soluble protein abundance (C2orf69; concentration: 10mM) was 0.913 ± 0.066, the NP40-soluble protein abundance (CBR4; concentration: 0.1mM) was 1.01 ± 0.062 and the NP40-soluble protein abundance (CBR4; concentration: 0.5mM) was 0.97 ± 0.11. It also gave an NP40-soluble protein abundance (CBR4; concentration: 1mM) of 0.915 ± 0.1, an NP40-soluble protein abundance (CBR4; concentration: 2mM) of 0.938 ± 0.046 and an NP40-soluble protein abundance (CBR4; concentration: 4mM) of 0.918 ± 0.086. The NP40-soluble protein abundance (CBR4; concentration: 6mM) was 0.887 ± 0.055, the NP40-soluble protein abundance (CBR4; concentration: 8mM) was 0.885 ± 0.056 and the NP40-soluble protein abundance (CBR4; concentration: 10mM) was 0.896 ± 0.066. It also gave an NP40-soluble protein abundance (COG1; concentration: 0.1mM) of 1.04 ± 0.036, an NP40-soluble protein abundance (COG1; concentration: 0.5mM) of 1.062 ± 0.0041 and an NP40-soluble protein abundance (COG1; concentration: 1mM) of 1.07 ± 0.014. The NP40-soluble protein abundance (COG1; concentration: 2mM) was 1.048 ± 0.0046, the NP40-soluble protein abundance (COG1; concentration: 4mM) was 1.05 ± 0.076 and the NP40-soluble protein abundance (COG1; concentration: 6mM) was 1.06 ± 0.019. For the same compound, the NP40-soluble protein abundance (COG1; concentration: 8mM) was 1.02 ± 0.041, the NP40-soluble protein abundance (COG1; concentration: 10mM) was 1 ± 0.013 and the NP40-soluble protein abundance (NHLRC2; concentration: 0.1mM) was 0.983 ± 0.026. It also gave an NP40-soluble protein abundance (NHLRC2; concentration: 0.5mM) of 1 ± 0.025, an NP40-soluble protein abundance (NHLRC2; concentration: 1mM) of 0.95 ± 0.046 and an NP40-soluble protein abundance (NHLRC2; concentration: 2mM) of 0.922 ± 0.036. For the same compound, the NP40-soluble protein abundance (NHLRC2; concentration: 4mM) was 0.924 ± 0.052, the NP40-soluble protein abundance (NHLRC2; concentration: 6mM) was 0.901 ± 0.057 and the NP40-soluble protein abundance (NHLRC2; concentration: 8mM) was 0.917 ± 0.025. For the same compound, the NP40-soluble protein abundance (NHLRC2; concentration: 10mM) was 0.892 ± 0.043, the NP40-soluble protein abundance (PLD3; concentration: 0.1mM) was 0.988 ± 0.023 and the NP40-soluble protein abundance (PLD3; concentration: 0.5mM) was 0.964 ± 0.06.
